The whole screen tested about 400,000 compounds, of which about 13,000 (3.2%) were called active. This list was built around the results that the source calls inconclusive (neither active nor inactive); the mix of calls is not that of the screen. The call rests on the fitted dose curve; in most records, active means well fitted cell-killing curve with a large enough effect; inconclusive means small, poorly fitted or top-dose-only effect, or effect the other way; inactive means flat fitted curve, though single readings scatter. A potency beside an inconclusive call is a rough fit, not a confirmed value.
assay: qHTS assay for MDR1-selective chemotherapeutics: Primary screen using the drug-selected MDR subline cells KB-V1; settings: KB-V1 MDR cells viability, CellTiter-Glo, 72 h; activity change, negative = cytotoxicity: at 46.1 µM (top of the series); further: nearly all actives have a fitted effect of over 60% in size
Method in brief: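 Cytotoxicity toward P-gp-expressing KB-V1 cells was determined as loss of CellTiter-Glo luminescence after 72 h at 37 degrees C. Compounds were tested in quantitative HTS format across a concentration range, with curves fitted to normalized data.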
On the % scale 0 is the no-effect control and ±100 the full control effect; potency means the concentration at half of the fitted maximal effect.

Row | Structure (SMILES) | activity change, negative = cytotoxicity | Potency
1 | COc1cc(SC#N)ccc1N=Cc1c(C)[nH]n(-c2ccc(C)cc2C)c1=O | inactive: 10.8% | –
2 | COc1cccc(N(C(=O)c2cccs2)c2nc3ccccc3s2)c1 | inactive: -8.03% | –
3 | Cc1ccc(NC(=O)CCC(=O)N2CCC(c3ccccc3)=N2)cc1S(=O)(=O)N1CCCCC1 | – | inconclusive: 7.31 µM [cytotoxic, partial curve]
4 | CC1(Cc2c(Cl)cccc2Cl)C(=O)Nc2cc(-c3ccccc3Cl)ccc21 (stereo not drawn) | – | inconclusive: 29.1 µM [cytotoxic, single point]
5 | COc1ccc(/C=C/C(=O)Nc2sc3c(c2C(N)=O)CCC(C)C3)cc1OC (stereo not drawn) | – | inconclusive: 3.26 µM [cytotoxic, partial curve, poor fit]
6 | O=C(c1ccc(CS(=O)Cc2ccccc2Cl)o1)N1CCN(c2cccc(Cl)c2)CC1 (stereo not drawn) | – | inconclusive: 10.3 µM [cytotoxic, partial curve, poor fit]
7 | CCOC(=O)c1c(C)[nH]c(C(=O)Nc2cc(OCC)c(N3CCOCC3)cc2OCC)c1C | inactive: 19% | –
8 | O=C(Nc1nccs1)c1ccccc1[N+](=O)[O-] | – | inconclusive: 23.1 µM [rising, single point]
9 | CC(=O)c1ccc(OCCCN2CCCCC2)cc1 | – | inconclusive: 25.9 µM [cytotoxic, partial curve, poor fit]
10 | CNC(=O)c1ccc(Nc2nnc(-c3ccc(C)c(S(=O)(=O)N4CCCCC4)c3)c3ccccc23)cc1 | – | inconclusive: 5.17 µM [rising, partial curve]
11 | COc1ccc(NC(=O)CCCNC(=O)Cn2cnc3sc4c(c3c2=O)CCCC4)c(OC)c1 | – | active: 20.6 µM
12 | O=C(Nc1ccc(F)c(S(=O)(=O)N2CCOCC2)c1)C1CCCCC1 | – | active: 18.4 µM
13 | COc1ccc(-c2cc(NC=O)c3ncc(-c4ccc(OC)c(OC)c4)n3c2)cc1 | – | active: 3.66 µM
14 | Cc1cc(C)cc(OCc2ccc(C(=O)Nc3ccccc3F)o2)c1 | – | inconclusive: 29.1 µM [rising, single point]
15 | CCOc1ccc(C2C(C(=O)OC)=CN(CCOC)C=C2C(=O)OC)cc1 | – | inconclusive: 10.3 µM [cytotoxic, partial curve]
16 | N#CC1c2ccccc2C=CN1C(=O)c1ccccc1 (stereo not drawn) | inactive: 7.62% | –
17 | O=C(Nc1ncc2c(n1)CC(c1ccco1)CC2=O)c1ccco1 (stereo not drawn) | – | inconclusive: 0.411 µM [rising, full curve, poor fit]
18 | COC(=O)c1c(NC(=O)c2cccs2)sc2c1CCC(C)C2 (stereo not drawn) | inactive: -0.61% | –
19 | COCCNc1nc(-n2nc(C)cc2C)nc2sc3c(c12)CCCC3 | – | active: 9.2 µM
20 | CC1=C(C(=O)N(C)C)CC(CC(=O)NCCc2ccccn2)C(=O)N1Cc1ccccc1 (stereo not drawn) | inactive: 4.71% | –
21 | C[C@@H](c1ccccc1)N1C[C@@H](COCc2ccccc2)Oc2cc(N3CCC[C@H]3C(N)=O)ccc2S1(=O)=O | – | inconclusive: 16.4 µM [cytotoxic, partial curve, poor fit]
22 | Cc1cc(C)nc(SCCn2c(N3CC(C)OC(C)C3)nc3c2c(=O)n(C)c(=O)n3C)n1 (stereo not drawn) | – | inconclusive: 23.1 µM [cytotoxic, single point]
23 | Cc1ccc(NC(=O)C(=O)c2cc(C)n(-c3ccc(F)cc3)c2C)cc1C | inactive: -28.7% | –

Look-ups from the entries so far.
Potency with `Cc1cc(C)nc(SCCn2c(N3CC(C)OC(C)C3)nc3c2c(=O)n(C)c(=O)n3C)n1` (stereo not drawn) reads inconclusive: 23.1 µM [cytotoxic, single point]
Potency with `CCOc1ccc(C2C(C(=O)OC)=CN(CCOC)C=C2C(=O)OC)cc1` reads inconclusive: 10.3 µM [cytotoxic, partial curve]

(continued)

Row | Structure (SMILES) | activity change, negative = cytotoxicity | Potency
24 | CCCCC(=O)NC(=S)NNC(=O)c1ccc(OC)cc1 | – | inconclusive: 7.31 µM [cytotoxic, partial curve]
25 | CCOc1ccc(NC(=O)C2CCCN(S(=O)(=O)c3ccc4[nH]c(=O)ccc4c3)C2)cc1 (stereo not drawn) | – | inconclusive: 29.1 µM [rising, single point]
26 | CCOC(=O)c1c(NC(=O)C2COc3ccccc3O2)sc2c1CCN(Cc1ccccc1)C2 (stereo not drawn) | inactive: -5.29% | –
27 | Cc1ccc(CN2CCN(Cc3ccco3)CC2)cc1 | inactive: 0.0527% | –
28 | O=c1oc2ccccc2c(O)c1/C=C1\C=Nc2ccccc21 | – | inconclusive: 29.1 µM [cytotoxic, single point]
29 | CCNC(=O)C1CCCN(C(=O)c2ccccc2OC(F)(F)F)CC1 (stereo not drawn) | inactive: 3.75% | –
30 | N#CC1=C(N)C(C#N)(C#N)[C@H](c2cccnc2)[C@H]2CN(C(=O)OCc3ccccc3)CC=C12 | – | inconclusive: 32.6 µM [cytotoxic, single point]
31 | C[C@@H]1COc2cccc(N3CCSCC3)c2S(=O)(=O)N1 | inactive: -10.6% | –
32 | N#Cc1c(-c2ccc(Cl)cc2)n(O)c2ccccc12 | – | active: 3.66 µM
33 | COc1ccc(-c2nc(NC(=O)c3ccccc3)sc2-c2ccc([N+](=O)[O-])cc2)cc1 | – | inconclusive: 14.6 µM [cytotoxic, partial curve, poor fit]
34 | COc1ccc(CCn2c(=N)c(S(=O)(=O)c3ccccc3)cc3c(=O)n4ccccc4nc32)cc1 | inactive: 19.9% | –
35 | COc1ccccc1N1CCN(C(=O)c2cc(-c3ccc(F)cc3)on2)CC1 | – | inconclusive: 11.6 µM [cytotoxic, partial curve]
36 | C=C1CCN([C@@H](CC(C)C)C(=O)NN2CCOCC2)S(=O)(=O)c2ccccc21 | – | inconclusive: 25.9 µM [cytotoxic, single point]
37 | CS/C(N)=N/N=C/c1cc(Br)cc(Br)c1O | – | inconclusive: 32.6 µM [cytotoxic, partial curve, poor fit]
38 | N#Cc1c2c(c(-c3ccccc3)[nH]c1=O)CCCC2 | – | inconclusive: 11.6 µM [cytotoxic, partial curve]
39 | COc1ccc2cc(CN(CC3CCCO3)C(=S)Nc3ccccc3)c(=O)[nH]c2c1 (stereo not drawn) | – | active: 20.6 µM
40 | CCn1cc(C(=O)O)c(=O)c2cnc(N3CCN(C(=S)NC(=O)c4ccc(Br)cc4)CC3)nc21 | – | inconclusive: 5.8 µM [rising, partial curve]
41 | CCOC(=O)c1ccc(NC(=O)CSc2nc(=O)n3cccc(C)c3n2)cc1 | – | inconclusive: 11.6 µM [cytotoxic, partial curve]
42 | CC(=O)c1ccc(N2C(=O)N(CC(=O)c3ccc(C)cc3)c3ccccc3S2(=O)=O)cc1 | inactive: -12.6% | –
43 | COCCCN(CC(=O)Nc1ccc(N2CCOCC2)cc1)S(=O)(=O)c1ccc(Cl)cc1 | – | inconclusive: 13 µM [cytotoxic, partial curve, poor fit]
44 | CCN1C[C@@H]2[C@@H]3C(=O)N(C)C(=O)[C@@H]3[C@](C)(C1=O)N2C(=O)c1ccc(C)cc1 | – | inconclusive: 1.84 µM [rising, full curve, poor fit]
45 | CC(C)(C)OC(=O)NCCCCCNC(=O)c1nc[nH]c1C(=O)NCc1ccc(CNC(=O)OC(C)(C)C)cc1 | – | inconclusive: 18.4 µM [cytotoxic, single point]
46 | S=C(NCc1ccccc1)Nc1ccc2ccccc2c1 | inactive: 13% | –

Row | Structure (SMILES) | activity change, negative = cytotoxicity | Potency
47 | COc1ccc(/C=N/n2c(COc3ccccc3)n[nH]c2=S)cc1OC | inactive: -6.56% | –
48 | Cc1cccn2c(=O)c(C(=O)NCCc3ccccc3)c(O)nc12 | – | inconclusive: 32.6 µM [cytotoxic, single point]
49 | Cc1ccccc1C(=O)NNc1ccc([N+](=O)[O-])cc1 | – | inconclusive: 23.1 µM [cytotoxic, partial curve, poor fit]
50 | C=CCn1c(SCC(=O)c2ccc(Cl)cc2)nnc1-c1ccc2c(c1)OCO2 | – | inconclusive: 9.2 µM [cytotoxic, partial curve]
51 | COc1ccc(NC(=O)C(Cl)=C(Cl)Cl)cn1 | – | inconclusive: 16.4 µM [cytotoxic, single point]
52 | O=C(NCC(c1cccs1)N1CCOCC1)c1ccc(Cl)cc1 (stereo not drawn) | – | inconclusive: 20.6 µM [cytotoxic, single point]
53 | CC(=O)Nc1ccc(Oc2cc(C#N)c(C#N)cc2N2CCCCCC2)cc1 | – | inconclusive: 10.3 µM [cytotoxic, partial curve, poor fit]
54 | Cc1cn([C@H]2C[C@H](O)[C@@H](CNCc3ccc(CN(C)S(C)(=O)=O)o3)O2)c(=O)[nH]c1=O | inactive: 3.71% | –
55 | CNC(=O)c1c(NC(=O)c2ccc(S(=O)(=O)N3CCCc4ccccc43)cc2)sc2c1CCN(C)C2 | inactive: 0% | –
56 | COCCn1nnnc1C(c1ccccc1)N1CCN(c2ccccc2)CC1 (stereo not drawn) | inactive: -10.5% | –
57 | CCOc1ccc(NC(=O)c2oc3ccccc3c2NC(=O)c2c(F)cccc2F)cc1 | inactive: -21.4% | –
58 | CCN(CC)CCc1c(C)[nH]c(C(=O)OCc2ccccc2)c1C | – | inconclusive: 20.6 µM [cytotoxic, partial curve, poor fit]
59 | O=[N+]([O-])c1cccc(/C=N/Nc2nc(N3CCOCC3)nc(N3CCOCC3)n2)c1 | inactive: -0.494% | –
60 | CC1CCCC(=NNc2ccc3ccccc3n2)C1 (stereo not drawn) | – | inconclusive: 20.6 µM [cytotoxic, single point]
61 | COCc1cccc(-c2csc(C(C)(NC(C)=O)c3ccc(OC)cc3)n2)c1 (stereo not drawn) | inactive: -15% | –
62 | COCCNC(=O)C(c1ccc(C)o1)N(C(=O)c1snc(C(N)=O)c1N)c1ccc(C)c(C)c1 (stereo not drawn) | – | inconclusive: 9.2 µM [cytotoxic, partial curve, poor fit]
63 | Cc1nc([N+](=O)[O-])cn1CC(=O)Nc1ccc([N+](=O)[O-])cc1 | – | inconclusive: 29.1 µM [rising, single point]
64 | CCC(C)c1ccc(S(=O)(=O)N2CCN(CC(O)COCC3CCCO3)CC2)cc1 (stereo not drawn) | inactive: -0.361% | –
65 | COc1ccc(-n2ncc(C(=O)Nc3cccc(C(F)(F)F)c3)c2C2CCN(C(=O)OC(C)(C)C)CC2)cc1 | inactive: 3.34% | –
66 | Cc1c(C)n(C(=O)CSc2nncn2C)c2ccccc12 | – | inconclusive: 20.6 µM [rising, single point]
67 | CCOC(=O)CC1(C)Oc2cc(Cl)ccc2N1S(=O)(=O)c1ccc(C)cc1 (stereo not drawn) | – | inconclusive: 6.51 µM [cytotoxic, partial curve]
68 | CC1CCCN(S(=O)(=O)c2ccc(C(=O)Nc3nnc(-c4ccncc4)o3)cc2)C1 (stereo not drawn) | – | inconclusive: 11.6 µM [cytotoxic, partial curve]
